Reference: paper doi:10.1101/2022.07.31.501833
These are yes or no findings as the source states them, for the method shown. Some binding calls cover weakened binding; strength is not graded here. For some assays here: Tags and fused reporters may be left off the sequences shown.

Sequences of proteins named here, by UniProt entry; tags and fusion partners are left off.
UniProt G0SER9: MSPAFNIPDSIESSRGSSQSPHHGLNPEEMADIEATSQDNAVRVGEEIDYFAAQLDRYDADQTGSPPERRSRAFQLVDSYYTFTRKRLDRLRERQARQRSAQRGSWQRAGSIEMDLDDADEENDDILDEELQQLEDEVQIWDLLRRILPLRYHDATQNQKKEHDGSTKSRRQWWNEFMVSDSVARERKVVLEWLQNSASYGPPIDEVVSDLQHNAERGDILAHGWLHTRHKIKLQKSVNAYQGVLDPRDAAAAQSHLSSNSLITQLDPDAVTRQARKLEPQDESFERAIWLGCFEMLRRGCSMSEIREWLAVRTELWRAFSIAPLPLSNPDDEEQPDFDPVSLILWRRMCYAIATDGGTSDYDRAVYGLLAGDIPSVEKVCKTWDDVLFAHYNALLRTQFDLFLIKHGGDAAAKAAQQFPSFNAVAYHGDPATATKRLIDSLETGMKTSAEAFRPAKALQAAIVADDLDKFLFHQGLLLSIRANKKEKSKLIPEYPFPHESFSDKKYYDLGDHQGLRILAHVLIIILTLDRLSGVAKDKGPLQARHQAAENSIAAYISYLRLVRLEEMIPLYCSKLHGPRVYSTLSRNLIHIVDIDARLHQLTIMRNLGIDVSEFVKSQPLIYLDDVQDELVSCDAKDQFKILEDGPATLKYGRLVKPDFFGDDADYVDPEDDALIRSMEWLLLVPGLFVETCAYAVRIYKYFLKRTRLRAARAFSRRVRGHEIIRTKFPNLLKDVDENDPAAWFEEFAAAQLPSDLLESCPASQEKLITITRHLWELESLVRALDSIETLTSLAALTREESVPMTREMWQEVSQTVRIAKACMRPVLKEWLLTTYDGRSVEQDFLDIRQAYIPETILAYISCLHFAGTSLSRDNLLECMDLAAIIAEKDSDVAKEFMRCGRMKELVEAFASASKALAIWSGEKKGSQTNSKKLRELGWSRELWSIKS

B1: CtNup133 (Chaetomium thermophilum Nup133), full length (protein, UniProt G0S9A7 1-1364)
chain: MFSSTLHEDGPATRTRSSRRRQRPVASDSSLQTQPKAKRQRVPLTESNTAPTPTPADADAPPEMFEVKPDPVLAKRERDGIGIENIENLGPRRELSLRSKKPKSGERTSKGDGSIILTTNNAFTVSKLPALPDRLRAEPTSRQHGAIFSSGYALALTHTHAFVWPYTATTASPETFTFALPYPSKHASDPLPLGALVPPSASSDDPGLVVVMPVSGRVVYWESISSAATLDFIRQQRTGIEDAISGMYSSEHITQLVSAESAGFVLVFSSGRIAYMSVRDPHGRPGITVQYLRSPFGGASLGFLSTLRHALSGSSRGDIAAAHANHGPRVGERVVIAASSKGRLQAWKIHRGGHHEPVAEADVRERLVEAVNEADAKTQAFPSESFEVLDFAFVPRGLEPKYVNASRLSEALTHEEDSLQHMLLLVGFSRGHQARYSLVETVLAPEGARIGTVRPITSYTSPVRPGALEKPRLYLPRPALVAFVVFDRAVVVASMVAPPDSPDSQLQEDSHILPPTFEDVVDFRDDDTLQVVGSGSEEPGAGTSSEDVRPHRHKTKNPTAVLLLPGVGIVRVAITDIERFASDAPPRVTAKSKLEQAVFFGIKSDNPLVFQGRRALPFSDREVCDAAVELSHEIVNSKTPFIPSVPASLEGNMKSRSAYLDALITFLNACKVNMDERTRWMLLYDAEKMAVATWIWQKHEQFLAERPRADKKTLISEAAVFINENQKTELNVAAGQVDPVRHWFIHDIFRLDIFVAWAYQIIKYHYTQKLSDEPGLNRLVWEAVTINNGALLEARQFRLDKAAQYGVDPAVVPTGNGLPEPWTSTYFITNNLKRLTEFCHQWLAKHDAQPSADPRFDARLLDTVRERLPSLTSQYFTSLSEYITWAASSTDPETQDRCRAYQAAYAEDVYKKIVKLKEFDLWEEAVELAREFEAFDALADVVVGQILMLEAAAADPTTTESKAQENAALAQVKKQRLGRLMEEFGEGFASRAYEVLLDAAGVQAVLEFAFDRKGFITKWLRGKPELARISWVNEVLREGDVGGAAETLLGLGMSREVQVWNKKVELSLGKLALLAEGGGSDDEAGKGEVGGTIKKIDAELEVVKVQDLLYQWILASVHEAVDSSAEVELAVKQFGGLIPRRQKALLQIFEDGIARLLKHEVLDPLTLIDLLTLSSLGPGHYEGMGDQFFLALKVAHYAALENAEEVRRLIWRRCLVRDDWRQVNETNLKGDEEALEAVGETAAYRTLFACFDEESSTPTFRPHHTLKPSDCLGVYTEPEQLDSRFAAMDDSFRGKLVEAMRAEDRLLRGFVEKAQLDEWWRATRETAERMVGVAAQKGHRRVNSGSVGNGGVNGLSLNGRVKMY
modifications: Alexa Fluor 546 label in the GUV assay
B2: CtNup120 (Chaetomium thermophilum Nup120), full length (protein, UniProt G0S0E7 1-1262)
chain: MAFDNFEILYKETRLNLEPASPSSVVQLRVAPTNAYGRSSLSSSSSSRPASATADDEKGYRTKNLATASSIYYRKHHSSPRGFLWRVLDNNTVLSIRVADVCRQEKVADAPLILNLRFASPLRPACVGFADHEDHDALFVYAIDQSNQLWSIILRPDHFRKRSATEGGLGDASRVYSPPGFGFKHPHRLAVVSPDQLIVTMHDGGILKFDRNKNHESHGSPWRESIYNVAGWGQSLRGLVPFQRNPTVRYEKINMELTAAASTAVTTMGHAETAFLFTICLDHRMRVWDVRTGQILYTGDILNNTKRDPQEVGKWTVDPSQNNLIRILDNGRGQCLVVTYSPVGAGEFKFWKVKANDQGSIHVTDCFPDARLMSPNPTSLDVWTLADFAIAQQPDGPELWALWKNNTSYRVNRLQIIPRNATAPFADGWKAVCVESPGPTPRASGSWNPTDSTEKWLDLIFSPGRFSKSTLETALAMYEKGLGTYKETVSRSGKGIAESICSVIGSTTTLDRSSQGGADYDQFRNTSETQWMRFWRLLLELDKQRGEALSLVFDQYDGMVWVTCADLLAAVRQCSDLERLYHNLQSPEKKNEDVAALISAGLTFVETFSDSMHQLCKAALRAELYENSALSDRERMQLFLDRAGFWVTDEDWAQVLDIVGQNYQMVTSRLYEDLFDLITATSEANSQELREPFTIFGKKVVVRAVQETVELHWQILFSQLILLVNMVDSESEEARPLHTRFDVGSVYRRLIDALRRLEHLRWMTKTELSVSPSKSRSGSSSPTLSKRGQDESYTRTALEELAGHLFGLPESNNMPLLSSITDLVLDLCAPTSTTVLNTWLIQCWLLKEGRPDLALELMPFAEQDPFSTYVQGRVFLALRDYDTAAQHFRKAAIGLSIPLKHVDRHSAGLLDDTEWNLLNSGLPNYYAHIVNLYDKQKAYSYVMEFSRLALQFAQTSNQDSASIKTEMLSRLFTASTATSHFEEAHSALLAMDDEALQKSYLRKLLERMCESGQSSELISLPFSGLQNKVDEILAEKCRATRDVLNGVPYHQILYAWRISHNDYRGAAAILLDRLEKLRRSGEGDKLGAEDGENGAGNDALDTQVTRQYLIVINALSCVAPQEAYILEDVPPPVPGKGTNDEEYSQTGSKRKLGKLNATSGEEDLDSRIEELARLLDSESAGDKKARPSSSSEEDQQLLERMQKFSTAVRQEQGQQTPRRLLRLEDLRKQYQQELDRIVAIQNNQFALTADGEDEDEDMMDIA
modifications: Alexa Fluor 546 label in the GUV assay
B3: CtNup120βM, β-propeller domain of CtNup120 with an α-helical extension (domain or fragment, UniProt G0S0E7 1-832)
chain: MAFDNFEILYKETRLNLEPASPSSVVQLRVAPTNAYGRSSLSSSSSSRPASATADDEKGYRTKNLATASSIYYRKHHSSPRGFLWRVLDNNTVLSIRVADVCRQEKVADAPLILNLRFASPLRPACVGFADHEDHDALFVYAIDQSNQLWSIILRPDHFRKRSATEGGLGDASRVYSPPGFGFKHPHRLAVVSPDQLIVTMHDGGILKFDRNKNHESHGSPWRESIYNVAGWGQSLRGLVPFQRNPTVRYEKINMELTAAASTAVTTMGHAETAFLFTICLDHRMRVWDVRTGQILYTGDILNNTKRDPQEVGKWTVDPSQNNLIRILDNGRGQCLVVTYSPVGAGEFKFWKVKANDQGSIHVTDCFPDARLMSPNPTSLDVWTLADFAIAQQPDGPELWALWKNNTSYRVNRLQIIPRNATAPFADGWKAVCVESPGPTPRASGSWNPTDSTEKWLDLIFSPGRFSKSTLETALAMYEKGLGTYKETVSRSGKGIAESICSVIGSTTTLDRSSQGGADYDQFRNTSETQWMRFWRLLLELDKQRGEALSLVFDQYDGMVWVTCADLLAAVRQCSDLERLYHNLQSPEKKNEDVAALISAGLTFVETFSDSMHQLCKAALRAELYENSALSDRERMQLFLDRAGFWVTDEDWAQVLDIVGQNYQMVTSRLYEDLFDLITATSEANSQELREPFTIFGKKVVVRAVQETVELHWQILFSQLILLVNMVDSESEEARPLHTRFDVGSVYRRLIDALRRLEHLRWMTKTELSVSPSKSRSGSSSPTLSKRGQDESYTRTALEELAGHLFGLPESNNMPLLSSITDLVLDLCAPTS
modifications: Alexa Fluor 546 label in the GUV assay

What was measured:
[1] = molecular target: T1, ProtA-tagged CtNdc1 (Chaetomium thermophilum Ndc1), expressed in S. cerevisiae (Chaetomium thermophilum) (UniProt G0S235); assay: pull-down
T1 sequence: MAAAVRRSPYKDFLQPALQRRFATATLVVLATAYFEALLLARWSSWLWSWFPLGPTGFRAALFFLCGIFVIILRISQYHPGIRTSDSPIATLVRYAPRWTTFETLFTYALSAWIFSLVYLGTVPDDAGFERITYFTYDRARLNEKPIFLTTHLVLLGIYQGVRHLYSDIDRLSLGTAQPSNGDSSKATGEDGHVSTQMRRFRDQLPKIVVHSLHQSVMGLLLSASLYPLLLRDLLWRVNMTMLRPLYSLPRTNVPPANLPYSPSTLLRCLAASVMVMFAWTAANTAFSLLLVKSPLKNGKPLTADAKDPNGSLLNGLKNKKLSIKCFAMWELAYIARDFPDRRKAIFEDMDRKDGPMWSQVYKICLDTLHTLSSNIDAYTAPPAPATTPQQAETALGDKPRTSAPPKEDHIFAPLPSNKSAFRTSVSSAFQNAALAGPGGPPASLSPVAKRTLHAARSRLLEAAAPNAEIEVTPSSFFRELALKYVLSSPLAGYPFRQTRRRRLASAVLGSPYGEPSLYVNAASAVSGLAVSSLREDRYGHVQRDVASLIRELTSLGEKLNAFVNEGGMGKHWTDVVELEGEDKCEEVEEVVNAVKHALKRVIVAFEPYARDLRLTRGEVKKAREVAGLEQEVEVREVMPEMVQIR

[2] = molecular target: T2, ProtA-tagged CtPom152 (Chaetomium thermophilum Pom152), expressed in S. cerevisiae (Chaetomium thermophilum) (UniProt G0SB44); assay: pull-down
T2 sequence: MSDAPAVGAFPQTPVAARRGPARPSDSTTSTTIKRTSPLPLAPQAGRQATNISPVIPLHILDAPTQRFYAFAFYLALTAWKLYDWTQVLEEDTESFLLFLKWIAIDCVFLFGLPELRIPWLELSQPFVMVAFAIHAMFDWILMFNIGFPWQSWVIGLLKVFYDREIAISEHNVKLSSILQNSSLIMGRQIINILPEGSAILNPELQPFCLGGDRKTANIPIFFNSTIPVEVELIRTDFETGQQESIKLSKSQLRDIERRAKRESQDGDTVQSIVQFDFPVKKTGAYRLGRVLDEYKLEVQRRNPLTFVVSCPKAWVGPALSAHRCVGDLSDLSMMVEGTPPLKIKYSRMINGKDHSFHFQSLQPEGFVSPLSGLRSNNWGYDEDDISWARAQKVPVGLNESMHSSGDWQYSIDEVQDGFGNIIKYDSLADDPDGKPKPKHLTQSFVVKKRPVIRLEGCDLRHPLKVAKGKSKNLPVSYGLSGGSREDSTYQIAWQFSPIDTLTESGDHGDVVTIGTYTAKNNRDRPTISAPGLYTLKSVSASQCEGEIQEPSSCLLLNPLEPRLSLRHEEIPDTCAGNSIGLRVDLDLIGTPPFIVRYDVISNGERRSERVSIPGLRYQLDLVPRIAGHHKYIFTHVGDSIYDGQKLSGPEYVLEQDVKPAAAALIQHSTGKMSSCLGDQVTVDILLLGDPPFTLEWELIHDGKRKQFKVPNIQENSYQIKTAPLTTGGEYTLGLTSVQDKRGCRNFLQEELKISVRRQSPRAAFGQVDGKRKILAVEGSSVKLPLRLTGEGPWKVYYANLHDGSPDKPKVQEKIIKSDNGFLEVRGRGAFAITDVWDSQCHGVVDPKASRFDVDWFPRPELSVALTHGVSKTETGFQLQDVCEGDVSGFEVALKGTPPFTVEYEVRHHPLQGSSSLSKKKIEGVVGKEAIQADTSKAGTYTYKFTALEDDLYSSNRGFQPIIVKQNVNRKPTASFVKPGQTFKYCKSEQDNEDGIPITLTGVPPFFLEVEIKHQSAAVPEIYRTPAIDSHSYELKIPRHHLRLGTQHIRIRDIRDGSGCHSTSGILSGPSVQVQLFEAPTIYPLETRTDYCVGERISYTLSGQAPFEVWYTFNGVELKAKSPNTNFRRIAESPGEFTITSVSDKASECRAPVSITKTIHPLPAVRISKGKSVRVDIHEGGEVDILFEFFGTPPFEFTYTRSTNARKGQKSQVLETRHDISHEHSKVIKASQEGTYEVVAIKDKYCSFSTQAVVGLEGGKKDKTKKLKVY

[3] = molecular target: T3, CtNdc1 (1-308), N-terminal transmembrane part, Alexa Fluor 488-labeled, reconstituted into GUVs (Chaetomium thermophilum) (UniProt G0S235); assay: recruitment to GUVs
T3 sequence (chain, Alexa Fluor 488 (succinimidyl ester labelling)): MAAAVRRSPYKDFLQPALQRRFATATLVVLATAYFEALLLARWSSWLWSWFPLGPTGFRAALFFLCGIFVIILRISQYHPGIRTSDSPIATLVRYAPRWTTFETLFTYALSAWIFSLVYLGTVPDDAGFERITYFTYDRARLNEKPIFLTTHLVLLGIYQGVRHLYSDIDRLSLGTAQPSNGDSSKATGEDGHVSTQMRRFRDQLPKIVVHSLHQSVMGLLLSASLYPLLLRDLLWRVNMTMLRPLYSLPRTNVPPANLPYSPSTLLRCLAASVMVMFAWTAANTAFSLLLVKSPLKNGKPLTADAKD

Molecule	binding [1]	binding [2]	other results
CtNup84 (Chaetomium thermophilum Nup84), full length (from UniProt G0SER9 1-948)	no binding	–	–
CtNup120βM, β-propeller domain of CtNup120 with an α-helical extension (from UniProt G0S0E7 1-832) (domain or fragment)	binds	–	–
B1	–	no binding	–
B2	–	no binding	–
B3	–	–	binding [3]: binds
